Experimental data: publication PMC2651596
Read-outs that look alike come from different tables or passages of the source. No constants are given. Whether binding was seen depends on the method and setting. Binding seen in cells or lysates may run through a third protein. Some binding calls cover weakened binding; strength is not graded here. Tags and fused reporters may be left off the sequences shown.

Amino acid sequences for entries named in this document (tags omitted).
UniProt O35973: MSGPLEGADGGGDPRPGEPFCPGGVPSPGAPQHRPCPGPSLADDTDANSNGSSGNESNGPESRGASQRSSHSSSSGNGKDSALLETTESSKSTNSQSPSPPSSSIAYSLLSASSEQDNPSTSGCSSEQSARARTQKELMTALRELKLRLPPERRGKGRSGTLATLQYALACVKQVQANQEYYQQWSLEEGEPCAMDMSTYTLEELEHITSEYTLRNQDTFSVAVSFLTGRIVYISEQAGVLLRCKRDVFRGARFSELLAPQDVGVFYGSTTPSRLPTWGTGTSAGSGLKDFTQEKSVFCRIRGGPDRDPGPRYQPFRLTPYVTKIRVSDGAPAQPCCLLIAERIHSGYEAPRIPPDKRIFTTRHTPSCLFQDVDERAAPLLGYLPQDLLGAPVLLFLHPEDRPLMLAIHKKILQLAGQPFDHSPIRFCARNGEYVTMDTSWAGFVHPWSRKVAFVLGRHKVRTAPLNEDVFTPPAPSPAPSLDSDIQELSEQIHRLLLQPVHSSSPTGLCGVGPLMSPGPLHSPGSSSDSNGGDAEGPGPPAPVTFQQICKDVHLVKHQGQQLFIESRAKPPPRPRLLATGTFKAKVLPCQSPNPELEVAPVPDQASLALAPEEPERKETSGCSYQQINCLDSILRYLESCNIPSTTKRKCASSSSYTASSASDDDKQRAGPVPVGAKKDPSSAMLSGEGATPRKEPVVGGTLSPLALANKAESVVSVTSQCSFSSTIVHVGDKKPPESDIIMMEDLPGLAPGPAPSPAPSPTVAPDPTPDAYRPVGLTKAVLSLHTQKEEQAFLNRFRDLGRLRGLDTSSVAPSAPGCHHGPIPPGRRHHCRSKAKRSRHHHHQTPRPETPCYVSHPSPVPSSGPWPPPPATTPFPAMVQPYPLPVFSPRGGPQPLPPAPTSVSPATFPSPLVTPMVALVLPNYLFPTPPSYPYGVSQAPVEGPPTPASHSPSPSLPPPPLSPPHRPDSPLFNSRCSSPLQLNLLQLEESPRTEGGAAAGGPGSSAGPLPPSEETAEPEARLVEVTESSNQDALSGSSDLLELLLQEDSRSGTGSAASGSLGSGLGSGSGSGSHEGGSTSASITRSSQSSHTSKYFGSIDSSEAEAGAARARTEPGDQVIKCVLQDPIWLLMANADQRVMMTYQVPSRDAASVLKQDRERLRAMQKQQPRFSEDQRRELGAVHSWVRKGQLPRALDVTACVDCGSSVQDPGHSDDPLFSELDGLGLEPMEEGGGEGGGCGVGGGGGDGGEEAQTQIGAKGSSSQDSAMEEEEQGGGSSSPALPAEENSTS
UniProt O35625: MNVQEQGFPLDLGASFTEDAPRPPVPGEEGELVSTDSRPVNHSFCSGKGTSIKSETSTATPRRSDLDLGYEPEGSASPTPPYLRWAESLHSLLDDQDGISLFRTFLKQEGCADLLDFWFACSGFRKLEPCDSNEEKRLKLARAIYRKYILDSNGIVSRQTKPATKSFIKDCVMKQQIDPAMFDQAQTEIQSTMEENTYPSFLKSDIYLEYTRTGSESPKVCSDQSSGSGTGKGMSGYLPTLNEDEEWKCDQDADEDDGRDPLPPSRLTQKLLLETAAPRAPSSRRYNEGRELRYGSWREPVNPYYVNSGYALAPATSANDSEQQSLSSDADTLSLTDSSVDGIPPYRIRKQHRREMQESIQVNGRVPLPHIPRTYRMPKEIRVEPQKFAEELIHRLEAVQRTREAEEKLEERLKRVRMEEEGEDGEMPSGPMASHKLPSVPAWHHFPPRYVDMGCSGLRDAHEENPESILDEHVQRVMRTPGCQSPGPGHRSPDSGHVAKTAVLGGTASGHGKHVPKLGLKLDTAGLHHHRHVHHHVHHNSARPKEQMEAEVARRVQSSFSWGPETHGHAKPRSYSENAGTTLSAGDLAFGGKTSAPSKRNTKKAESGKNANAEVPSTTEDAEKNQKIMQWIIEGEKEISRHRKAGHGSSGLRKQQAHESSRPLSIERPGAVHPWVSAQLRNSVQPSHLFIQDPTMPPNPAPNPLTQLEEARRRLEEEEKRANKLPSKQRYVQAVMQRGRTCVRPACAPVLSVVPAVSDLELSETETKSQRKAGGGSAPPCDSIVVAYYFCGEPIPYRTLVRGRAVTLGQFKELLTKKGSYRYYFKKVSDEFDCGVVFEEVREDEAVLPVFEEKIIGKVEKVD

Legend:
[1] = molecular target: T1, full-length Xenopus CKIα fused to GST (Xenopus laevis) (UniProt P67963); assay: pull-down; GST fusion kinase bound to glutathione sepharose, incubated with 35S-labeled substrate; 4°C, 40 minutes, 20 mM Tris pH 7.5, 150 mM NaCl, 0.5% Nonidet P-40, 1 mM DTT; full-length CKIε and CKIα→ε constructs dephosphorylated with SAP, or CKIε autophosphorylated with ATP, on the resin; only the target purified
T1 sequence: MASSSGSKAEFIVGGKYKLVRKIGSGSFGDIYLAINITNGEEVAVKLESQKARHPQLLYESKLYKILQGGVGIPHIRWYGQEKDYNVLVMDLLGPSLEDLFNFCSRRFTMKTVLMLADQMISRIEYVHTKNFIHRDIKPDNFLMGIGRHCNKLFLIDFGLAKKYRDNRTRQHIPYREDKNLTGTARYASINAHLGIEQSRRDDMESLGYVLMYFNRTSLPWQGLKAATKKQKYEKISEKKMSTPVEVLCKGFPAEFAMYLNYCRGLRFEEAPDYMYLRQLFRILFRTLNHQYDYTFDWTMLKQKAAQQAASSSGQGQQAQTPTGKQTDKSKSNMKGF

[2] = molecular target: T1, full-length Xenopus CKIα fused to GST (Xenopus laevis); assay: as above; remark: listed apart in the source

mouse Per1, 35S-labelled (from UniProt O35973 1-1291)
binding [1]: no binding

mouse Axin, 35S-labelled (from UniProt O35625 1-863)
binding [1]: binds

B1: Xenopus Dishevelled, 35S-labelled (protein, UniProt P51142 1-736)
chain: MAETKVIYHLDEEETPYLVKVPVPATDIRLRDFKAALGRGHAKYFFKAMDQDFGVVKEEISDDNAKLPCFNDRVVSWLASSEGSQPDSAPPAPATEVRPEPPPPVPPPIPPPPAERTSGIGDSRPPSFHPNVSGSTEQLDQDNESVISMRRDRVRRRESSEQAGVGRGVNGRTERHLSGYESSSTLLTSEIETSICDSEEDDTMSRFSSSTEQSSASRLLKRHRRRRKQRPPRLERTSSFSSVTDSTMSLNIITVTLNMEKYNFLGISIVGQSNERGDGGIYIGSIMKGGAVAADGRIEPGDMLLQVNDINFENMSNDDAVRVLRDIVHKPGPIVLTVAKCWDPSPQGYFTLPRNEPIHPIDPAAWVSHSAALSGSFPVYPGSASMSSMTSSTSVTETELSHALPPVSLFSLSVHTDLASVVKVMASPESGLEVRDRMWLKITIPNAFLGSDVVDWLYHHVEGFQDRREARKFASNLLKAGFIRHTVNKITFSEQCYYIFGDLTGCENYMTNLSLNDNDGSSGASDQDTLAPLPLPGASPWPLLPTFSYQYQAPHPYSTQPPAYHELSSYSYGMGSAGSQHSEGSRSSGSNRSDGGRGMQKDDRSGVAGVGGGDSKSGSGSESEYSTRSSIRRVGGGEAGPPSERSTSSRLPPHHPPSVHSYAAPGVPLSYNPMMLMMMPPPPLPPPGVCPPNSSVPPGAPPLVRDLASVPPELTATRQSFHMAMGNPSEFFVDVM
modifications: 35S-methionine label
binding [2]: no binding
